The record followed here is patent US20220205997A1.

Chains of the proteins cited; added tags and fusions are not shown. Lines headed by an entry give the natural chain unless they say otherwise; changes in a name come on top.
UniProt P02749: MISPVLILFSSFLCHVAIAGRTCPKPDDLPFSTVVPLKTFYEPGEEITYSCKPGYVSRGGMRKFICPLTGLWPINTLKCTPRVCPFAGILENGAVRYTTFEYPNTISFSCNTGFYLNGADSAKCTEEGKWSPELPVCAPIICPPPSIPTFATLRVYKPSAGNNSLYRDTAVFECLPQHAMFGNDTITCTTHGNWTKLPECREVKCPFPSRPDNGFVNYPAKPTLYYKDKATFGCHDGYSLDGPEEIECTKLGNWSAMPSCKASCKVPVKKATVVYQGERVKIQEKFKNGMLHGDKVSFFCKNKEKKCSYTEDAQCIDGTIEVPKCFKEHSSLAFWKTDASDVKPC
UniProt P04114: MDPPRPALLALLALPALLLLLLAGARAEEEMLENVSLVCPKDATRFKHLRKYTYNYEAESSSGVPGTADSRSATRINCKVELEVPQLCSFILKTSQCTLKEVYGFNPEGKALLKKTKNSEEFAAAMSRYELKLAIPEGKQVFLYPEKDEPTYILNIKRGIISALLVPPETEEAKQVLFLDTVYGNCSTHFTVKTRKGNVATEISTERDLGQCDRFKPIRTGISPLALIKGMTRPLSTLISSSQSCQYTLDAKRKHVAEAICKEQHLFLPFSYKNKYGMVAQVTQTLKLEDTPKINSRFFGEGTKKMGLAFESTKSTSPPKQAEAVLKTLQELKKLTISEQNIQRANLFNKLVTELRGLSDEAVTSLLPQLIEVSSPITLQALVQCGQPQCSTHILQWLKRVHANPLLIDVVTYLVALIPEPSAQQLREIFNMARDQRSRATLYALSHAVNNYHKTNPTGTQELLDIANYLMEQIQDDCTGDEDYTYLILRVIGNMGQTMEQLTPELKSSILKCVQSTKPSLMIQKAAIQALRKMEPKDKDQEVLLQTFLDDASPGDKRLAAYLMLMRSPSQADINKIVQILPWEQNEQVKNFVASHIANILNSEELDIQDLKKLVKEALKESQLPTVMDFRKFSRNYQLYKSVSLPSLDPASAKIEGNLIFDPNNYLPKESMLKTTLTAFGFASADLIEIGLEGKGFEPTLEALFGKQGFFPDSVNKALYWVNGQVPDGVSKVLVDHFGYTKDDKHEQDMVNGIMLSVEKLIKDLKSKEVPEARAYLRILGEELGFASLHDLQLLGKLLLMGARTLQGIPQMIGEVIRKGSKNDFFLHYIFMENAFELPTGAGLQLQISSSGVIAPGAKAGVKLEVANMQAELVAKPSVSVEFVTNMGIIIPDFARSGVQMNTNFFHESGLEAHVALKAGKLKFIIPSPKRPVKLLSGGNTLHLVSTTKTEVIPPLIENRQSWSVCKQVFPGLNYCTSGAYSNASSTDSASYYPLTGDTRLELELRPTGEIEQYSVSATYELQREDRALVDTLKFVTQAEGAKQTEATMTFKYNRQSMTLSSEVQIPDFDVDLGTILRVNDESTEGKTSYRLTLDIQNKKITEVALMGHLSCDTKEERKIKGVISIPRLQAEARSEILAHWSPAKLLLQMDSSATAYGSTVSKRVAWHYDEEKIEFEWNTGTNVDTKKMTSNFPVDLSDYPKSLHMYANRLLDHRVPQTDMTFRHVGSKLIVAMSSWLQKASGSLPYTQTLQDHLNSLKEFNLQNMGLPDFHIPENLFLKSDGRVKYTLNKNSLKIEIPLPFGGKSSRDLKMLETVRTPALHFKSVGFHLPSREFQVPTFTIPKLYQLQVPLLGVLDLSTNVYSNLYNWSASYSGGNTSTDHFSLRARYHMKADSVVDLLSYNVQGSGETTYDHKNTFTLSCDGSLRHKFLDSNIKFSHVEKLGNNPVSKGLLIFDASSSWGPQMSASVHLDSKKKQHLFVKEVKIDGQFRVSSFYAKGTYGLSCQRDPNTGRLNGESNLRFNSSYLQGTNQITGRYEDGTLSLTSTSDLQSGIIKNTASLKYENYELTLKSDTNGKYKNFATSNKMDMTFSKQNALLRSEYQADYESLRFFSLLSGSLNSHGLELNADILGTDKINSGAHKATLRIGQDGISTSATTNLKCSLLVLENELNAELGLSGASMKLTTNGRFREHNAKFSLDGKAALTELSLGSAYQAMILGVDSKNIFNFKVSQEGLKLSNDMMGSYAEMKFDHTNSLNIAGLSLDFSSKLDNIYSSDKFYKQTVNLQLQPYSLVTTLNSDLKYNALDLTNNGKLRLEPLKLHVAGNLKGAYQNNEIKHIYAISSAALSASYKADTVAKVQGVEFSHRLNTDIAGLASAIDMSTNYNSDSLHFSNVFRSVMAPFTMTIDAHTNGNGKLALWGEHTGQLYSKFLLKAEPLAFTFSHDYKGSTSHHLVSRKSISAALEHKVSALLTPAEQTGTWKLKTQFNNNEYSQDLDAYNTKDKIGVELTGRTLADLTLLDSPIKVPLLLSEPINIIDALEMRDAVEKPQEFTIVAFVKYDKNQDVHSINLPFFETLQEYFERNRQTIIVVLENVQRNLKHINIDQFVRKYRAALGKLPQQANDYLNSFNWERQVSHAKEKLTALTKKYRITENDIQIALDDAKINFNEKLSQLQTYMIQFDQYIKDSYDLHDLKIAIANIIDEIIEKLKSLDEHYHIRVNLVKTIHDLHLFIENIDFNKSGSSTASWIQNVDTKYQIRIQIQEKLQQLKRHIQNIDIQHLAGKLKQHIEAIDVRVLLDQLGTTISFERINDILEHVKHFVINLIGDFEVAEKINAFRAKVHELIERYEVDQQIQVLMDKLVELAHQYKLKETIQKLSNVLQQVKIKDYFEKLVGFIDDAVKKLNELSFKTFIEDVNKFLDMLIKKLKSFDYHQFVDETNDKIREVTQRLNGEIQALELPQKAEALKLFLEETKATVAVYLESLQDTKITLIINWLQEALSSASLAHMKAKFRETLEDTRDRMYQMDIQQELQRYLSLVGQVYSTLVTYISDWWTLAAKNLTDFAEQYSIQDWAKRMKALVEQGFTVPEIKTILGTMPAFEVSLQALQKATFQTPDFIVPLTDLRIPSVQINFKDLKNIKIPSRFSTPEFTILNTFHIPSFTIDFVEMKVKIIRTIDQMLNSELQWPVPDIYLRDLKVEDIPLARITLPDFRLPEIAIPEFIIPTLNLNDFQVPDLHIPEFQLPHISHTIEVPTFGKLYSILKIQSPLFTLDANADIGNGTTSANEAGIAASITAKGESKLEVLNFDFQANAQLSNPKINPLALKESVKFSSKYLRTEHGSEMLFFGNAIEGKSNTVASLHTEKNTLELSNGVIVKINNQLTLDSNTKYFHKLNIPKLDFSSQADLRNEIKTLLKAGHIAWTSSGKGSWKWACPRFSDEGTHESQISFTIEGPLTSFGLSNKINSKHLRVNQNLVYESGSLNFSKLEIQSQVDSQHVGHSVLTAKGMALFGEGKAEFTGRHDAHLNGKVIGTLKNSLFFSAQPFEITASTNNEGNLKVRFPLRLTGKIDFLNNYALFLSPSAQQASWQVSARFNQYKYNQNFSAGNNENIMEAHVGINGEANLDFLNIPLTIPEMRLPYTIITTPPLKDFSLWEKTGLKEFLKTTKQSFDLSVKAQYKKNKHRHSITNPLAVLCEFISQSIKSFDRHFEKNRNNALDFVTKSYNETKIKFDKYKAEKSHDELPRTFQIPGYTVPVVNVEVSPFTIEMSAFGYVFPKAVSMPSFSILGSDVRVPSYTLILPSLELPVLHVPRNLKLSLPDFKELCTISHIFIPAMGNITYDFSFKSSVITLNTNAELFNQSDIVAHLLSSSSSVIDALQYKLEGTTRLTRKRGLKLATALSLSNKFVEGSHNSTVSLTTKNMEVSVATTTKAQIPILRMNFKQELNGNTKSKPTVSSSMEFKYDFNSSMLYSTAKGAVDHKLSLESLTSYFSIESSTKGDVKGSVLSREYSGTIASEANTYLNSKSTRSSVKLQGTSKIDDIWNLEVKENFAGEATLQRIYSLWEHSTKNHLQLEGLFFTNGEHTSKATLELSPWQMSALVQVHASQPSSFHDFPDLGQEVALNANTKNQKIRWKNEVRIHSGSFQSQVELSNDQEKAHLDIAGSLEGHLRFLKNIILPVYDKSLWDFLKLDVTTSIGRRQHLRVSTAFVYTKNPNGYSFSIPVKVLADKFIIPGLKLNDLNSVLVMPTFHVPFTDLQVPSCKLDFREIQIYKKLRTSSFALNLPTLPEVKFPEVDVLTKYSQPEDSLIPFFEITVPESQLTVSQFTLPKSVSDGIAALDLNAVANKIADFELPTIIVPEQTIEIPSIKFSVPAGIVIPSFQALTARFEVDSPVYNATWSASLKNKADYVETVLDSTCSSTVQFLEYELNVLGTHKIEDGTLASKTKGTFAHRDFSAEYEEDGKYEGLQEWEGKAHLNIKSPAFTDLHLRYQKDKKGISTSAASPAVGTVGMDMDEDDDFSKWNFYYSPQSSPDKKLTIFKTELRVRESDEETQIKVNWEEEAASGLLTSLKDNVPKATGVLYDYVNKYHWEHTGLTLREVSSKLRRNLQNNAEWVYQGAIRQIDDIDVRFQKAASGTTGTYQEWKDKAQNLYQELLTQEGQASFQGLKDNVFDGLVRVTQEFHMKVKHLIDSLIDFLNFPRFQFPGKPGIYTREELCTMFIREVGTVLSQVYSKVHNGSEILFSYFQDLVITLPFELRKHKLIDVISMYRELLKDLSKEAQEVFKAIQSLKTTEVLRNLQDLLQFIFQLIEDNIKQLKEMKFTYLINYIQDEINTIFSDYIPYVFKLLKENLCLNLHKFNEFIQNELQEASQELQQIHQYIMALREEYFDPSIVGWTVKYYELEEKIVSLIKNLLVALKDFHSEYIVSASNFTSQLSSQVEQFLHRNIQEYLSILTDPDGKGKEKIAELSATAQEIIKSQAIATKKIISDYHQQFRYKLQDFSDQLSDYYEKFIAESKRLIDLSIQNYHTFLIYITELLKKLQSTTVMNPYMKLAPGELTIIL

Assay [1] addresses T1, Cu2+-oxLDL/β2GPI complex (complex of copper-oxidized LDL and β2-glycoprotein I) (human) (UniProt P02749+P04114). The assay is described as follows: lateral flow assay, Experiment 5: biotin-3H3 as capture, gold-2E10 as label; compared with Experiment 8.
The target in assay [2] is T1, Cu2+-oxLDL/β2GPI complex (complex of copper-oxidized LDL and β2-glycoprotein I) (human). Description: lateral flow assay, Experiment 8: biotin-2E10 as capture, gold-3H3 as label.

No constants are given. Whether binding was seen depends on the method and setting. Some results given as binding are weak or reduced against the parent protein; the word gives no strength.

B1: 3H3 antibody (anti-β2GPI antibody produced by hybridoma clone 3H3) (antibody, V domains shown)
VH: EVQLVESGGGLVKPGGSLKLSCAASGFTFSSYAMSWARQTPEKRLEWVATISSGGSYTYYPDSVRGRFTISRDNAKNTLYLQMCSLRSEDTAMYYCARFDGYYAMDYWGQGTSVTVSS
VL: DIVMTQSHKFMSTSVGDRVSITCKASQDVGSAVAWYQQKPGQSPKLLIYWASTRHTGVPDRFTGSGSGTDFTLTISSLQSEDLADYFCQQYSSYPLTFGSGTKLEIK
B1: the binding result in assay [1] and in assay [2] was “binds” in each case.
